Experimental findings from publication PMC5537347, “A short D-enantiomeric antimicrobial peptide with potent immunomodulatory and antibiofilm activity against multidrug-resistant Pseudomonas aeruginosa and Acinetobacter baumannii” (Scientific Reports, 2017) are described below.

A short description of the data set: Circular dichroism spectroscopy, helical content. Type of data set: physicochemical.

Peptide text beside a SMILES is read from it.

Consider `CC[C@H](C)[C@H](NC(=O)[C@H](CCCNC(=N)N)NC(=O)[C@H](CCCNC(=N)N)NC(=O)[C@H](CC(C)C)NC(=O)[C@H](Cc1c[nH]c2ccccc12)NC(=O)[C@H](C)NC(=O)[C@H](CCCCN)NC(=O)[C@@H](NC(=O)[C@H](CCCNC(=N)N)NC(=O)[C@H](CCCNC(=N)N)NC(=O)[C@H](CC(C)C)NC(=O)[C@@H](N)Cc1c[nH]c2ccccc12)[C@@H](C)CC)C(=O)N[C@@H](CCCCN)C(=O)N[C@@H](C)C(=O)O` [RR4], for which the helical content entry (with the addition of SDS and TFE) is “about 30%”.

For `CC[C@H](C)[C@H](NC(=O)[C@H](CCCNC(=N)N)NC(=O)[C@H](CCCNC(=N)N)NC(=O)[C@H](CC(C)C)NC(=O)[C@@H](N)Cc1c[nH]c2ccccc12)C(=O)N[C@@H](CCCCN)C(=O)N[C@@H](C)C(=O)N[C@@H](Cc1c[nH]c2ccccc12)C(=O)N[C@@H](CC(C)C)C(=O)N[C@@H](CCCNC(=N)N)C(=O)N[C@@H](CCCNC(=N)N)C(=O)O` [RR] (H-WLRRIKAWLRR-OH; N-terminus and C-terminus assumed), the helical content is given as 12% (in SDS, mean residue ellipticity at 222 nm) and 20% (in TFE, mean residue ellipticity at 222 nm).
